Values from PubChem BioAssay AID1224828 (NIAID, 2016).
Aim: 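Find genes required for NF-kappaB p65 moving into the nucleus after LPS in mouse macrophages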 (primary screen). System: mouse RAW264.7 G9 macrophage reporter cells (GFP-p65, Tnf promoter-mCherry). Reagents: siRNA pool against mouse genes, 100 nM. Timing: 2 days siRNA transfection, then 40 min LPS before fixation. Challenge: LPS (Salmonella minnesota R595) at 10 ng/ml. Detection: 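Imaged p65 nuclear translocation ratio, normalised to the plate median, converted to robust z-scores and averaged across two replicates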. Scale: p65 translocation robust z-score: higher = more nuclear NF-kappaB p65 after LPS than the plate median; nuclear/cytoplasmic p65 ratio: higher = more nuclear NF-kappaB p65. Hit rule: 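Called active when z exceeds 3.3 or falls under -1.56 (median of Tlr4 controls), giving activity score of at least 50; no calls for control wells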. Calls: active = hit (p65 shift raised or lowered); inactive = no clear change.
This is one part, drawn at random, of about 17,000 reagents. In the full data, 762 (4.5%) got an active call. 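Active calls include both raised and lowered p65 entry, mostly lowered; wells with fewer than 50 cells lack a z-score.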 Raw values are not corrected between plates. Unmarked entries are inactive.

no.	gene	p65 translocation robust z-score	nuclear/cytoplasmic p65 ratio, rep 1	nuclear/cytoplasmic p65 ratio, rep 2	low cell count flag
1	Lair1 (leukocyte-associated Ig-like receptor 1)	-0.04	1.49	1.36	enough cells to score
2	Sult2a8	-0.22	1.35	1.43	enough cells to score
3	Ttc41 (tetratricopeptide repeat domain 41)	0.12	1.64	1.81	enough cells to score
4	Vmn1r33 (vomeronasal 1 receptor 33)		1.42	1.3	fewer than 50 cells per well; well left out of scoring
5	A130079P16Rik (retired record)		1.09	1.47	fewer than 50 cells per well; well left out of scoring
6	Dclk3 (doublecortin-like kinase 3)		1.74	1.1	fewer than 50 cells per well; well left out of scoring
7	Gpam (glycerol-3-phosphate acyltransferase, mitochondrial)	-0.24	1.39	1.72	enough cells to score
8	Nt5el (5' nucleotidase, ecto-like)		1.26	1.21	fewer than 50 cells per well; well left out of scoring
9	Xylb (xylulokinase homolog (H. influenzae))	-0.05	1.54	1.49	enough cells to score
10	Magea6 (MAGE family member A6)	0.14	1.68	1.62	enough cells to score
11	1700129C05Rik (RIKEN cDNA 1700129C05 gene)		1.28	1.89	fewer than 50 cells per well; well left out of scoring
12	Hbb-y (hemoglobin Y, beta-like embryonic chain)	0.54	1.45	1.63	enough cells to score
13	Oxct2a (3-oxoacid CoA transferase 2A)		0.999	1.03	fewer than 50 cells per well; well left out of scoring
14	Mta1 (metastasis associated 1)	-0.08	1.37	1.39	enough cells to score
15	Gne	-0.33	1.62	1.35	enough cells to score
16	Phgdh (3-phosphoglycerate dehydrogenase)	1.33	1.66	1.6	enough cells to score
17	Gtf2ird1 (general transcription factor II I repeat domain-containing 1)	-0.99	1.21	1.34	enough cells to score
18	Dazl (deleted in azoospermia-like)	0.98	1.7	1.7	enough cells to score
19	B3galt1	-0.37	1.67	1.34	enough cells to score
20	Apoo (apolipoprotein O)	0.91	1.6	1.63	enough cells to score
21	Or10a48 (olfactory receptor family 10 subfamily A member 48)	0.35	1.4	1.39	enough cells to score
22	Gtf2e1	-1.21	1.2	1.29	enough cells to score
23	Sval1 (seminal vesicle antigen-like 1)	0.85	1.58	1.29	enough cells to score
24	Dok5 (docking protein 5)	1.35	1.68	1.54	enough cells to score
25	Lyplal1 (lysophospholipase-like 1)	0.01	1.73	1.53	enough cells to score
26	Or4f56 (olfactory receptor family 4 subfamily F member 56)	0.49	1.69	1.48	enough cells to score
27	Piga (phosphatidylinositol glycan anchor biosynthesis, class A)	-0.41	1.46	1.33	enough cells to score
28	Cdc16 (CDC16 cell division cycle 16)	0.9	1.65	1.44	enough cells to score
29	Ccr1l1 (C-C motif chemokine receptor 1 like 1)	-0.01	1.59	1.78	enough cells to score
30	Cd53 (CD53 antigen)	0.27	1.52	1.41	enough cells to score
31	Plcg2 (phospholipase C, gamma 2)	-0.47	1.48	1.3	enough cells to score
32	Tmem126a (transmembrane protein 126A)	3.5 (active)	1.46	1.87	enough cells to score
33	Cd160 (CD160 antigen)	-1.04	2.03	1.25	enough cells to score
34	Rab4b (RAB4B, member RAS oncogene family)	0.38	1.6	1.54	enough cells to score
35	Eif3a (eukaryotic translation initiation factor 3, subunit A)	0.32	1.63	1.4	enough cells to score
36	Tbl1xr1 (Tbl1x/y related 1)		1.24	1.25	fewer than 50 cells per well; well left out of scoring
37	Lysmd3 (LysM, putative peptidoglycan-binding, domain containing 3)	-0.23	1.56	1.78	enough cells to score
38	Ctsd (cathepsin D)	0.07	1.34	1.37	enough cells to score
39	Adamts7 (ADAM metallopeptidase with thrombospondin type 1 motif 7)	-1.34	1.41	1.42	enough cells to score
40	Fam168a (family with sequence similarity 168, member A)	-0.14	1.44	1.95	enough cells to score

In a second layout: results already given.
{"gene": "Gpam (glycerol-3-phosphate acyltransferase, mitochondrial)", "p65 translocation robust z-score": -0.24, "nuclear/cytoplasmic p65 ratio, rep 1": 1.39, "nuclear/cytoplasmic p65 ratio, rep 2": 1.72, "low cell count flag": "enough cells to score"}
{"gene": "Nt5el (5' nucleotidase, ecto-like)", "nuclear/cytoplasmic p65 ratio, rep 1": 1.26, "nuclear/cytoplasmic p65 ratio, rep 2": 1.21, "low cell count flag": "fewer than 50 cells per well; well left out of scoring"}
{"gene": "Xylb (xylulokinase homolog (H. influenzae))", "p65 translocation robust z-score": -0.05, "nuclear/cytoplasmic p65 ratio, rep 1": 1.54, "nuclear/cytoplasmic p65 ratio, rep 2": 1.49, "low cell count flag": "enough cells to score"}
{"gene": "Magea6 (MAGE family member A6)", "p65 translocation robust z-score": 0.14, "nuclear/cytoplasmic p65 ratio, rep 1": 1.68, "nuclear/cytoplasmic p65 ratio, rep 2": 1.62, "low cell count flag": "enough cells to score"}
{"gene": "1700129C05Rik (RIKEN cDNA 1700129C05 gene)", "nuclear/cytoplasmic p65 ratio, rep 1": 1.28, "nuclear/cytoplasmic p65 ratio, rep 2": 1.89, "low cell count flag": "fewer than 50 cells per well; well left out of scoring"}
{"gene": "Hbb-y (hemoglobin Y, beta-like embryonic chain)", "p65 translocation robust z-score": 0.54, "nuclear/cytoplasmic p65 ratio, rep 1": 1.45, "nuclear/cytoplasmic p65 ratio, rep 2": 1.63, "low cell count flag": "enough cells to score"}
